This is an account of results in PMC8970680.

The target in this assay is T1, pleiotrophin (rat (endogenous in primary rat differentiating immature OLs)) (UniProt P63090).
T1 sequence: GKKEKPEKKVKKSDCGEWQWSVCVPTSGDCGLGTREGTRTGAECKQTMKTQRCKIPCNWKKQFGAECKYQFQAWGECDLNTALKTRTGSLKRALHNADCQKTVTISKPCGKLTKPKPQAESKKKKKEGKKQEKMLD
Kind of assay: co-IP; endogenous proteins in lysate of primary rat differentiating immature OLs; precipitated with PTN (2 ug antibody overnight, Protein A/G Plus agarose beads, 4°C); co-IP buffer 50 mM Tris-HCl pH 7.5, 150 mM NaCl, 1% Triton X-100, 1 mM EDTA; blots for the receptors.

These are yes or no findings as the source states them, for the method shown. In cells and extracts the contact can be indirect.

As for “anaplastic lymphoma receptor tyrosine kinase”, the binding entry was “no binding”.
